From PubChem BioAssay AID2685 (National Center for Advancing Translational Sciences (NCATS), 2010)
The list shows a part of the results. The main result of the screen is listed elsewhere. These columns were measured beside it and carry no call. The list favours compounds with an active or inconclusive main result. Words in brackets tell the shape of the fitted curve; partial curves, single points and poor fits give uncertain potencies.

Experiment: qHTS Assay for Lipid Storage Modulators in Drosophila S3 Cells;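 as to cell number change: cells counted by Cell Tracker Red CMTPX staining in the red channel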
Details: BODIPY lipid droplet fluorescence, 18-24 h; for cell number change: measured here: cell count max response, cells fed with added oleic acid
Outline: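 Laser-scanning cytometry quantifies lipid droplet accumulation (500–530 nm total intensity; droplet/cell object ratio) in oleic acid-fed (400 uM added) Drosophila S3 cells treated with a concentration series. 20 uM Triacsin C defined 100% inhibition.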

[1] = measured here: lipid fluorescence (Fed channel) AC50, cells fed with added oleic acid
[2] = measured here: cell number channel AC50, cells fed with added oleic acid

SMILES	cell number change	AC50 [1]	AC50 [2]
Cc1cccc(N(CC(=O)N2CCCCCC2)S(C)(=O)=O)c1C	-8.07%	0.92 µM [falling, full curve, poor fit]	–
COc1ccc(Cn2c(C3CC3)nc3ccc(NC(=O)c4ccco4)cc3c2=O)cc1	-1.58%	0.517 µM [rising, full curve, poor fit]	–
O=C(N/N=C\c1ccco1)c1cncc(Br)c1	3.62%	–	–
CC(NC(=O)CN(C)Cc1cccc(Cl)c1)c1ccccc1 (configuration not stated)	-15.4%	–	–
CCCOc1ccc(Oc2ccc(S(=O)(=O)N3CCN(C)CC3)cn2)cc1	40.3%	4.11 µM [rising, single point]	5.17 µM [rising, partial curve]
O=C(Nc1ccc2c(c1)OCO2)c1ccncc1	–	14.6 µM [rising, partial curve]	–
OC(c1cc(-c2ccc(Cl)cc2)nc2ccccc12)C1CCCCN1 (configuration not stated)	-45.5%	29.1 µM [falling, single point]	23.1 µM [falling, single point]
O=c1c2ccccc2c(C=Nc2ccc(S(=O)(=O)Nc3ncccn3)cc2)c(O)n1-c1cccc(Cl)c1	109%	–	29.1 µM [rising, single point]
CCN(CC)c1ccc(N=Nc2nn(C)c(C)c2[N+](=O)[O-])cc1	-12.3%	–	–
O=C1/C(=C\c2ccc([N+](=O)[O-])cc2)CCc2ccccc21	5.46%	0.291 µM [falling, full curve, poor fit]	–
Cc1ccc(C(=O)Nc2ccc(N3CCN(C(=O)c4cccs4)CC3)cc2)c(Cl)c1	31.1%	0.58 µM [falling, single point]	0.164 µM [rising, partial curve, poor fit]
Cc1cc(C)n(-c2ccc(C(=O)NCc3cccs3)cc2)n1	-5.85%	–	–
COc1ccc(C(=O)NCc2ncccc2C)cc1OC1CCN(C(C)=O)CC1	-18.3%	0.58 µM [falling, single point]	–
O=C1C2C(C(=O)N1c1ccccc1)N1CCCN1C2c1ccccc1 (configuration not stated)	–	0.13 µM [falling, full curve, poor fit]	0.731 µM [falling, full curve]
CC(OC(=O)c1ncc(Cl)c(Cl)c1Cl)C(=O)NC1(C#N)CCCCC1 (configuration not stated)	–	–	0.00731 µM [rising, full curve, poor fit]
O=C(COc1ccc(F)cc1)NC1CC1	8.96%	0.461 µM [falling, full curve]	–
COc1ccc(/C=N/NC(=O)CNC(=O)c2ccncc2)cc1	19.4%	–	6.51 µM [rising, single point]
O=C(NC1CCCCCC1)C1CCN(S(=O)(=O)c2c(Cl)cccc2Cl)CC1	-23.9%	20.6 µM [falling, single point]	–
NC(=O)c1ccccc1NC(=O)CCCc1ccccc1	19.3%	–	–
Clc1cccc(Cl)c1CSc1nnc(CN2CCOCC2)n1-c1ccccc1	-12%	–	–
CC(Oc1ccc(Cl)cc1Cl)C(=O)NC(=S)N1CCc2ccccc21 (configuration not stated)	-9.5%	20.6 µM [falling, single point]	–

SMILES	cell number change	AC50 [1]	AC50 [2]
O=C(COc1ccccc1Cl)Nc1cccc(S(=O)(=O)NC2=NCCCCC2)c1	55.5%	–	0.259 µM [rising, partial curve]
CC1CCC(C(=O)NC(C(=O)NCc2ccccn2)C(C)C)CC1 (configuration not stated)	-22.3%	1.16 µM [falling, full curve]	2.59 µM [falling, single point]
CN(C(=O)c1ccncc1)c1nnc(-c2ccccn2)s1	36.1%	–	9.2 µM [rising, partial curve]
N#C/C(=N\Nc1cc(Cl)cc(Cl)c1)c1nnc2n1CCCCC2	-3.38%	20.6 µM [rising, single point]	–
Cc1ccc(Nc2nc(N)nc(CSc3nc(C)cc(C)n3)n2)cc1	–	–	0.517 µM [rising, full curve]
CCOC(=O)N/N=C/c1c[nH]c2ccccc12	-6.38%	–	–
CC(NC(=O)c1cccc(S(=O)(=O)N2CCN(C)CC2)c1)c1ccc(Cl)cc1Cl (configuration not stated)	118%	–	16.4 µM [rising, partial curve]
CCN(CC)c1ccc(N=C2C(=O)Nc3ccccc32)cc1	-58.7%	16.4 µM [falling, partial curve]	29.1 µM [falling, single point]
CCNC(=O)c1cc(Cl)ccc1OC	63.6%	–	29.1 µM [rising, single point]
CCOc1ccccc1C(=O)NCC(=O)N(C)Cc1ccccc1C	2.78%	0.58 µM [rising, single point]	–
O=c1[nH]c2ccccc2cc1-c1noc(-c2cccnc2)n1	22.2%	0.82 µM [rising, full curve]	0.58 µM [rising, full curve]
C=CCn1c(CCn2c3ccccc3c3ccccc32)n[nH]c1=S	24.6%	1.84 µM [rising, partial curve, poor fit]	–
COCCCN1C(=O)C(=O)/C(=C(/O)c2ccc3c(c2)OCCO3)C1c1ccc(C(=O)OC)cc1 (configuration not stated)	10.5%	7.31 µM [rising, partial curve, poor fit]	–
Cc1cc(Br)ccc1N=C1NC(=O)CS1	-22.8%	–	–
O=C1c2ccsc2SCCN1Cc1ccc(F)cc1	19.1%	29.1 µM [rising, single point]	–
Cn1cc(Br)c(C(=O)NNC(=O)c2ccc(Br)cc2)n1	13.8%	9.2 µM [rising, partial curve, poor fit]	–
COc1ccc(S(=O)(=O)N2CCCC(C(=O)NCc3ccccn3)C2)cc1 (configuration not stated)	-7.62%	0.206 µM [falling, partial curve, poor fit]	–
Cc1cc(C(=O)Nc2nnc(C3CCCCC3)s2)no1	9.57%	14.6 µM [rising, single point]	–
Cc1cccc(C)c1NC(=S)N1CCCN(C)CC1	27.1%	29.1 µM [rising, single point]	–
CCOCCCNC(=O)C1CCN(C(=O)Nc2ccc(Cl)cc2)CC1	-2.57%	9.2 µM [falling, partial curve, poor fit]	–

12 of the compounds above, as a markdown table:

| SMILES | cell number change | AC50 [1] | AC50 [2] |
| --- | --- | --- | --- |
| COc1ccc(Cn2c(C3CC3)nc3ccc(NC(=O)c4ccco4)cc3c2=O)cc1 | -1.58% | 0.517 µM [rising, full curve, poor fit] | – |
| O=C(N/N=C\c1ccco1)c1cncc(Br)c1 | 3.62% | – | – |
| OC(c1cc(-c2ccc(Cl)cc2)nc2ccccc12)C1CCCCN1 (configuration not stated) | -45.5% | 29.1 µM [falling, single point] | 23.1 µM [falling, single point] |
| O=C1/C(=C\c2ccc([N+](=O)[O-])cc2)CCc2ccccc21 | 5.46% | 0.291 µM [falling, full curve, poor fit] | – |
| COc1ccc(/C=N/NC(=O)CNC(=O)c2ccncc2)cc1 | 19.4% | – | 6.51 µM [rising, single point] |
| CCOC(=O)N/N=C/c1c[nH]c2ccccc12 | -6.38% | – | – |
| CC(NC(=O)c1cccc(S(=O)(=O)N2CCN(C)CC2)c1)c1ccc(Cl)cc1Cl (configuration not stated) | 118% | – | 16.4 µM [rising, partial curve] |
| COCCCN1C(=O)C(=O)/C(=C(/O)c2ccc3c(c2)OCCO3)C1c1ccc(C(=O)OC)cc1 (configuration not stated) | 10.5% | 7.31 µM [rising, partial curve, poor fit] | – |
| Cc1cc(Br)ccc1N=C1NC(=O)CS1 | -22.8% | – | – |
| O=C1c2ccsc2SCCN1Cc1ccc(F)cc1 | 19.1% | 29.1 µM [rising, single point] | – |
| Cn1cc(Br)c(C(=O)NNC(=O)c2ccc(Br)cc2)n1 | 13.8% | 9.2 µM [rising, partial curve, poor fit] | – |
| Cc1cc(C(=O)Nc2nnc(C3CCCCC3)s2)no1 | 9.57% | 14.6 µM [rising, single point] | – |
